# Reference: PubChem BioAssay AID1439 (NMMLSC, 2008)
# Amino acid sequences for entries named in this document (tags omitted).
# UniProt P09471, whole entry, looked up: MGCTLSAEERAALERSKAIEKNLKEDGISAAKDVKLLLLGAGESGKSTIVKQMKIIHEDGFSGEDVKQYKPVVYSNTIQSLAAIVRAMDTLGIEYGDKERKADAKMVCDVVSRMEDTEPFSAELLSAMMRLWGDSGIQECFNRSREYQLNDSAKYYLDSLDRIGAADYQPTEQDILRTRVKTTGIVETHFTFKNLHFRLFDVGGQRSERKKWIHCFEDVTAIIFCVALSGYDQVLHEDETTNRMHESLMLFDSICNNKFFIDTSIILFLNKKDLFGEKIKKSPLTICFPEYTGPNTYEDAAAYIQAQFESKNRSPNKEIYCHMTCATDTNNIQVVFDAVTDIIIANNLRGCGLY
# In all, about 220,000 compounds went through this assay and about 770 (0.35%) were called active. Inconclusive results, whose numbers are uncertain, are shown with a selection of clear calls. No stated cut-off is given here; in the data, active means binding response below about 49% or above about 150%; inconclusive means no clear call, values can overlap the other calls; inactive means in between.
# Target: Guanine nucleotide-binding protein G(o) subunit alpha (Homo sapiens) (UniProt P09471)
# Assay: RGS7-Galphao binding modulators, primary screen, biochemical, multiplexed bead flow cytometry (AID 1439);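 further: fluorescent Galphao held in activated GDP-AlF4 state binding bead-coupled RGS7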
# Conditions: at 10 µM, actives lie on both sides
row,SMILES,binding response (% of control)
1,CC(NC(=O)/C(C#N)=C1\N=C(NC(=O)c2ccco2)c2ccccc21)c1ccccc1 (centres undefined),inconclusive: 84.5%
2,CCOc1ccc(N2C(=O)CC(Sc3nc(C)cc(C)n3)C2=O)cc1 (centres undefined),inactive: 105%
3,CCCc1c(C(=O)NNc2cc(C(F)(F)F)ccc2Cl)cnn1-c1ccccc1,inconclusive: 116%
4,C/C(=N\NC(=O)CCc1ccc(S(=O)(=O)N2CCOCC2)cc1)c1ccc(Br)cc1,inconclusive: 100%
5,Oc1ccc(-c2nc3ccccc3s2)cc1,inconclusive: 136%
6,Cc1cc(C(C)(C)C)nc2[nH]n(-c3ccccc3)c(=O)c12,inactive: 103%
7,CCC(C(=O)Nc1cc(Cl)c(OC)cc1OC)c1ccccc1 (centres undefined),inconclusive: 87.4%
8,Cc1ccnn1CC(=O)N/N=C/c1c[nH]c2ccccc12,inconclusive: 97.2%
9,CCCN(CCC)C1CC(=O)N(Cc2ccccc2)C1=O (centres undefined),inactive: 113%
10,CC(=O)CC(C)(C)Nc1nc2ccc([N+](=O)[O-])cc2o1,inconclusive: -71%
11,FC(F)Oc1ccc(NC(=S)Nc2ccc3cn[nH]c3c2)cc1,inconclusive: 91.7%
12,Cc1onc(-c2ccccc2)c1C(=O)N1CCCN2C(=O)c3ccccc3C21 (centres undefined),inconclusive: 117%
13,O=C(Nc1ccc(S(=O)(=O)N2CCOCC2)cc1)c1ccc(=O)[nH]c1,inconclusive: 96.6%
14,Cc1ccccc1CCN(CC(=O)NC1CCCCC1)C(=O)c1csnn1,inconclusive: 99%
15,Cn1c(=O)c(=O)n(C)c2cc(S(=O)(=O)NCc3ccc(Cl)cc3)ccc21,inconclusive: 107%
16,O=C(/C=C/c1c(F)cccc1Cl)c1ccc(O)cc1,inconclusive: 95.7%
17,CCOCCCNC(=O)C(c1ccccc1)N(Cc1ccc2c(c1)OCO2)C(=O)c1ccccc1O (centres undefined),inactive: 111%
18,O=C(Cc1ccccc1)NCCN1CCCC1,inconclusive: 98.3%
19,CCCCCCCCn1c(=O)c(C(=O)OC)c(N)c2ccccc21,inconclusive: -179%
20,N#Cc1ccccc1NC(=O)COC(=O)/C=C/c1cn(-c2ccccc2)nc1-c1ccc(Cl)cc1,inconclusive: 87.4%

# 3 structures from above, arranged by count of non-hydrogen atoms, smallest number first:
row,SMILES,binding response (% of control)
6,Cc1cc(C(C)(C)C)nc2[nH]n(-c3ccccc3)c(=O)c12,inactive: 103%
13,O=C(Nc1ccc(S(=O)(=O)N2CCOCC2)cc1)c1ccc(=O)[nH]c1,inconclusive: 96.6%
14,Cc1ccccc1CCN(CC(=O)NC1CCCCC1)C(=O)c1csnn1,inconclusive: 99%

# Going on with the list:

row,SMILES,binding response (% of control)
1,COc1ccc(-n2c(=O)c3c4c(sc3n3c(=S)[nH]nc23)COC(C(C)C)C4)cc1 (centres undefined),inconclusive: 313%
2,CCCOc1ccc(-c2nc[nH]c2[N+](=O)[O-])cc1,inactive: 101%
3,Cc1cccc(C)c1OCC(=O)N(Cc1cccs1)C1CCS(=O)(=O)C1 (centres undefined),inconclusive: -24.7%
4,COc1ccc(NC(C)=O)cc1S(=O)(=O)N1CCN(C(=O)c2ccccc2F)CC1,inconclusive: 83.6%
5,CC(C)NC(=O)Nc1n[nH]c(Nc2ccc(Cl)cc2)n1,inconclusive: -23.5%
6,Cc1ccc(N/C=C(\C#N)S(=O)(=O)c2ccccc2)cc1,inconclusive: 97.4%
7,COc1ccccc1/C=C\C=N\n1c(-c2ccc(Cl)cc2)n[nH]c1=S,inactive: 93%
8,N/C(CSc1ncccc1C(F)(F)F)=N\O,inconclusive: 89.2%
9,CCOc1ccc(NC(=O)c2c3c(nc4ccccc24)CCC3)cc1,inconclusive: 88.6%
10,CN(CCO)CCC(=O)NC1(C)CS(=O)(=O)CC1S(=O)(=O)O (centres undefined),inconclusive: 80.7%
11,O=C(CNC1CCCCC1)Nc1cc(S(=O)(=O)N2CCOCC2)ccc1Cl,inconclusive: 83.8%
12,Cc1cc(/C(N)=N/OC(=O)Nc2ccc(Cl)cc2)no1,inconclusive: 91.1%
13,COc1cc(CN2CCC(C(=O)N3CCCC(C)C3)CC2)cc(Br)c1O (centres undefined),inactive: 91.9%
14,S=C1N[C@H]2CCCC[C@@H]2N1,inconclusive: 97.3%
15,Cc1cc(C)c2nc(-n3nc(C)cc3N)cc(C)c2c1,inconclusive: 105%
16,Cc1ccsc1C(=O)OCC(=O)N1CCc2ccccc2C1,inconclusive: 112%
17,CCN(CC)S(=O)(=O)c1ccc(OC)c(NC(=O)CSc2cc(Cl)ccc2Cl)c1,inactive: 96%
18,COc1ccccc1NC(=O)CCN1CCCCCC1,active: 0.63%
19,COc1ccc(CN2C(=O)C(C)S/C2=N/N=C/c2ccco2)cc1 (centres undefined),inconclusive: 110%
20,Cc1cc2nc(-c3cccnc3SCC(=O)NC3CC3)[nH]c2cc1C,inconclusive: 93%

# Pulled one by one from above, 4 records:
row,SMILES,binding response (% of control)
7,COc1ccccc1/C=C\C=N\n1c(-c2ccc(Cl)cc2)n[nH]c1=S,inactive: 93%
11,O=C(CNC1CCCCC1)Nc1cc(S(=O)(=O)N2CCOCC2)ccc1Cl,inconclusive: 83.8%
16,Cc1ccsc1C(=O)OCC(=O)N1CCc2ccccc2C1,inconclusive: 112%
14,S=C1N[C@H]2CCCC[C@@H]2N1,inconclusive: 97.3%

# Additional results follow:

row,SMILES,binding response (% of control)
1,Nc1nnc(CC(=O)N/N=C/c2ccccc2OCc2ccccc2F)s1,inconclusive: 139%
2,CC(C)=CC(=O)OCc1cc([N+](=O)[O-])cc2c1OCOC2,inconclusive: 78.7%
3,NS(=O)(=O)c1ccc(NC(=O)COC(=O)c2cn(-c3ccccc3)nc2-c2ccccc2)cc1,inconclusive: 98.2%
4,CCCC(=O)NCc1ccncc1,inactive: 99.3%
5,CSc1sc(C(=O)NNC(C)=O)c2c1C1(CCC2)SCCS1,inconclusive: 9.97%
6,O=C(O)c1ccccc1/C=N/NC(=S)NCc1ccccc1,inconclusive: 114%
7,O=c1[nH]c(Cc2cccs2)nc2scc(-c3ccc(Cl)cc3)c12,inconclusive: 89.5%
8,CCC(OC(=O)c1cccs1)C(=O)NCc1ccc(C)cc1 (centres undefined),inactive: 97.2%
9,CC(C)(C)c1cc(C(=O)NN)n(Cc2ccc(Cl)cc2Cl)n1,inconclusive: 134%
10,Cc1ccc(C(c2sc3nc(C)nn3c2O)N2CCN(CCO)CC2)cc1 (centres undefined),inconclusive: 68.1%
11,CCOc1ccc(N2CC(O)(c3ccc(F)cc3)[N+]3=C2CCCC3)cc1 (centres undefined),inconclusive: 89.7%
12,Cc1ccccc1NC(=S)N(Cc1ccccn1)Cc1ccccc1Cl,inconclusive: 98.6%
13,Cc1cccc(NC(=S)N(CCN(C)C)C(C)c2ccccn2)c1 (centres undefined),inactive: 102%
14,COc1ccc(Oc2ccccc2/C=C/C(=O)O)cc1,inactive: 97.9%
15,COc1ccc2[nH]c(=O)c(CN(C(=O)c3cccnc3)c3ccc(C)cc3C)cc2c1,inconclusive: 89.7%
16,O=[N+]([O-])c1cccc(-c2csc(CS(=O)(=O)Cc3ccco3)n2)c1,inconclusive: 21.7%
17,Cc1ccc(SCC(=O)Nc2cccc(-c3nnc(-c4ccco4)o3)c2)cc1,inactive: 102%
18,Oc1ccc2oc3c(c2c1C=NCc1ccncc1)CCCC3,inconclusive: 94.8%
19,O=C(NCCNc1nccc(C(F)(F)F)n1)c1cccs1,inconclusive: 151%
